From PubChem BioAssay AID540276 (National Center for Advancing Translational Sciences (NCATS), 2011)
Where “and” joins values, the source holds several entries; their conditions need not be identical. Equal entries are not always repeated. The campaign covered roughly 300,000 compounds. About 5,400 (1.8%) were called active. The inconclusive results got no clear call from the source; some entries with a clear call stand among them for comparison. Calls follow the shape of the full dose curve; tested in HEK293 cells. Where the call is inconclusive, the potency comes from a doubtful curve fit.

Assay: qHTS for inhibitors of binding or entry into cells for Marburg Virus
Conditions: Marburg virus pseudotyped entry inhibition, cell reporter; series mostly up to 37.8 µM
Potency is read from the fitted curve at half-maximal effect.

Compound | Potency
CC(=O)Nc1ccc(CC(=O)NCCC(c2ccccc2)c2ccccc2)cc1 | inconclusive: 1.12 µM [inhibitor, full curve]
O=C(N/N=C/c1cccnc1)C(=O)N1CCCCCC1 | inactive
O=C(COC(=O)c1ccc(S(=O)(=O)NCc2ccco2)cc1)Nc1ccccc1 | inconclusive: 20 µM [activator, single point]
CCOC(=O)C1(CCCc2ccccc2)CCN(C(=O)C2=C(C)OCCO2)CC1 | inconclusive: 12.6 µM [inhibitor, single point]
COc1ccccc1CN(C)C(=O)CSCC(=O)Nc1ccccc1F | inactive
O=C(CN1C(=O)C2C3C=CC(C3)C2C1=O)OCC(=O)c1ccccc1 (stereo not drawn) | inconclusive: 32.6 µM [inhibitor, single point]
CCOC(=O)c1cc2cc3ccccc3cc2[nH]1 | inconclusive: 6.51 µM [activator, single point]
COc1ccc2[nH]cc(CCNC(=S)NC3CCCC3)c2c1 | inconclusive: 28.2 µM [activator, single point]
Cc1ccc(C(=O)COC(=O)CNS(=O)(=O)c2ccc(C)cc2)cc1 | inactive
O=[N+]([O-])c1ccc(Nc2nc(NCCO)nc(N3CCCC3)n2)cc1 | inconclusive: 35.5 µM [inhibitor, single point]
O=C(Cc1c[nH]c2ccccc12)N1CCc2ccccc21 | inactive
Nn1cnn(Cc2ccccc2)c1=S | inconclusive: 0.708 µM [inhibitor, partial curve, poor fit]
CCN1CCC(O)(/C=C/c2ccc(C(C)C)cc2)C(C(=O)/C=C/c2ccc(C(C)C)cc2)C1 (stereo not drawn) | inconclusive: 11.2 µM [inhibitor, single point]
Cc1cccc(-c2nc(N)nc(N)n2)c1 | inactive
CCn1c(CNC(=O)Cc2ccc(OC)cc2)nnc1SCC(=O)NC1CCCCC1 | inconclusive: 29.1 µM [inhibitor, single point]
CCn1ncc(C2=NOC(C(=O)Nc3cccc(C(C)=O)c3)C2)c1C (stereo not drawn) | inconclusive: 1.16 µM [inhibitor, full curve]
N#C/C(=C\c1ccc(O)c(O)c1)C(=O)Nc1ccccc1 | inconclusive: 3.66 µM [activator, full curve] and inconclusive: 2.82 µM [activator, partial curve, poor fit]
COc1ccc(S(=O)(=O)N2CCCCC2)cc1NC(=O)C1CC(=O)N(Cc2ccco2)C1 (stereo not drawn) | inconclusive: 1.58 µM [inhibitor, partial curve, poor fit]
Cc1ccc(-n2ncc3c(=O)[nH]c(SCC(=O)N4CCCc5ccccc54)nc32)cc1 | inconclusive: 8.91 µM [inhibitor, partial curve, poor fit]
COc1ccccc1C(=O)Nc1ccnn1C1CCN(Cc2cnc(N(C)C)s2)CC1 | inactive
CC(C)CN(C(=O)c1ccco1)c1nc2ccccc2s1 | inactive
O=C(COC(=O)C12CC3CC(CC(O)(C3)C1)C2)Nc1ccccc1OC(F)F | inactive
COc1ccc(CCNc2nnc(Sc3nnnn3-c3ccccc3)s2)cc1OC | inconclusive: 4.11 µM [inhibitor, partial curve, poor fit]

Compound | Potency
COCCN1C=C2C(=O)C(C)(OC(=O)C3CCCC3)C(=O)C(c3ccccc3)=C2C=C1CCCC(=O)OC (stereo not drawn) | inactive
O=C(O)c1cc([N+](=O)[O-])ccc1N1CCC(Cc2ccccc2)CC1 | inconclusive: 35.5 µM [activator, single point]
Cc1cc2nn(-c3ccc(F)cc3)nc2cc1NC(=O)c1cc(Cl)ccc1Cl | inconclusive: 25.1 µM [activator, single point]
Cc1noc(C)c1COC(=O)c1csc2c1CCC(C)C2 (stereo not drawn) | inconclusive: 0.891 µM [activator, full curve]
CCN1CCc2c(OCC(=O)N3CCC(C)CC3)cccc2C1=O | inconclusive: 3.55 µM [inhibitor, single point]
C(CCc1nn[nH]n1)CCc1nn[nH]n1 | inconclusive: 35.5 µM [activator, single point]
CCOC(=O)c1c(C)[nH]c(=S)c(C#N)c1-c1ccc(Cl)cc1 | inactive
Cc1nc2c(C(=O)NCc3ccco3)cnn2c(C)c1Cc1ccc(F)cc1Cl | inconclusive: 29.1 µM [inhibitor, single point]
Cc1ccc(NC(=O)C2(NC(=O)c3ccccn3)CCCCC2)cc1Br | inconclusive: 0.158 µM [inhibitor, partial curve, poor fit]
COc1ccc(CNC(=O)C2CCN(C(=O)[C@@H](CC(C)C)NC(=O)OC(C)(C)C)CC2)cc1 | inactive
COC(=O)[C@@]1(Cc2ccc(F)cc2)[C@H]2c3cc(C(=O)N(C)C)n(Cc4ccc(OC)c(OC)c4)c3C[C@H]2CN1C(=O)c1ccccc1 | inconclusive: 16.4 µM [inhibitor, single point]
Cc1cccc(OCCCC(=O)NC(C)c2ccccc2)c1 (stereo not drawn) | inconclusive: 17.8 µM [activator, single point]
CCc1ccc(NC(=O)N(Cc2c[nH]c3ccccc23)C2CCCCCC2)cc1 | inactive
Cc1ccc(NC(=O)CNc2cccc(C)c2C)c(C)c1 | inactive
O=C(Nc1ccc(S(=O)(=O)N2CCCC2)cc1)C1CCCCC1 | inactive
CCOC(=O)c1oc2ccccc2c1COC(=O)CNC(=O)c1cc(OC)c(OC)c(OC)c1 | inconclusive: 7.08 µM [activator, partial curve, poor fit]
O=C(c1sccc1-c1ccccc1)N1CCN(S(=O)(=O)c2ccccc2F)CC1 | inconclusive: 35.5 µM [inhibitor, single point]
CCOC(=O)C1CNc2cc(S(=O)(=O)CC)ccc2O1 (stereo not drawn) | inactive
O=C(Cc1ccccc1)NNC1CC(=O)N(c2ccc(Oc3ccccc3)cc2)C1=O (stereo not drawn) | inactive
Cc1ccc(NC(=O)COC(=O)c2cccc3c2C(=O)c2ccccc2C3=O)c(C)c1 | inconclusive: 7.08 µM [inhibitor, partial curve, poor fit]
CCOC(=O)c1c(C)n(Cc2ccco2)c2c1cc(O)c1ccccc12 | inactive
COc1ccc([C@@]23Oc4cc(OC)cc(OC)c4[C@]2(O)[C@H](O)[C@H](C(=O)N(C)C)[C@H]3c2ccccc2)cc1 | active: 0.112 µM
COc1ccc(OC)c(N(C(=O)c2ccco2)C(C(=O)NC2CCCC2)c2ccc(N3CCOCC3)cc2)c1 (stereo not drawn) | inconclusive: 6.31 µM [inhibitor, single point]

Compound | Potency
Cc1ccc(NC(C)c2cc(Cl)ccc2O)cc1 (stereo not drawn) | inconclusive: 2.59 µM [inhibitor, partial curve]
O=C1c2ccccc2C(=O)C12OC2c1cccc2ccccc12 (stereo not drawn) | inconclusive: 15.8 µM [inhibitor, partial curve, poor fit]
Cc1c([C@@H]2Nc3ccccc3NC3=C2C(=O)CC(C)(C)C3)cnn1C | inactive
COc1cccc(C2=NS(=O)(=O)N(C)C(C(=O)Nc3cccc(O)c3)=C2)c1 | inconclusive: 10 µM [inhibitor, partial curve, poor fit]
Cc1cccc(Cc2c(C)nc3c(C(=O)NCc4ccco4)cnn3c2C)c1 | inconclusive: 29.1 µM [inhibitor, single point]
CC(C)(CO)CNC(=O)CC1C(=O)NCCN1CC(c1ccccc1)c1ccccc1 (stereo not drawn) | inactive
CCc1ccc(Nc2nnc(SC3CCOC3=O)s2)cc1 (stereo not drawn) | inconclusive: 3.16 µM [activator, single point]
CCN(CC)C(=O)C1c2ccccc2Oc2ccccc21 | inconclusive: 11.2 µM [inhibitor, partial curve, poor fit]
O=C(CCCCCn1c(=S)[nH]c2ccc(N3CCOCC3)cc2c1=O)NCc1ccccc1 | inactive
c1ccc(-n2ncc3c(N4CCN(c5ccccn5)CC4)nc(N4CCCCCC4)nc32)cc1 | inconclusive: 1.16 µM [inhibitor, single point]
O=C(NCC1CCCO1)c1cccc(Oc2ccc([N+](=O)[O-])cc2Cl)c1 (stereo not drawn) | inconclusive: 11.2 µM [inhibitor, partial curve]
Cc1cccc(NC(=S)N(CCN(C)C)C(C)c2cccnc2)c1 (stereo not drawn) | inconclusive: 3.55 µM [inhibitor, single point]
CN(C)c1nc(F)c(F)c(S(=O)(=O)c2ccccc2)c1F | inconclusive: 35.5 µM [inhibitor, single point]
COc1ccccc1NC(=O)c1nnn(Cc2ccccc2)c1NC(=O)C(F)(F)F | inconclusive: 3.98 µM [inhibitor, full curve]
CCN(CC(=O)Nc1ccc(S(=O)(=O)N2CCCCC2)cc1)Cc1ccccc1 | inconclusive: 10 µM [inhibitor, partial curve, poor fit]
COCn1c(=O)c2c(nc(SC3=NCCS3)n2Cc2ccccc2C)n(COC)c1=O | inconclusive: 29.1 µM [inhibitor, single point]
O=C(NCCCCc1ccccc1)c1ccccc1Cl | inactive
CCCc1nn(C)c(C(=O)Nc2ccccc2)c1Cl | inconclusive: 29.1 µM [inhibitor, single point]
O=C1C(c2ccccc2)=C(N2CC2)c2ccccc21 | inactive
COC(=O)c1sc(NC(=O)CSc2nc3nc(C)cc(C)n3n2)c(C(=O)OC)c1C | inconclusive: 25.1 µM [activator, single point]
COc1ccc2cc(S(=O)(=O)N3CCCC3)ccc2c1 | inconclusive: 35.5 µM [inhibitor, single point]
O=C(c1cc(-c2ccncc2)nc2ccc(Br)cc12)N1CCN(Cc2ccc3c(c2)OCO3)CC1 | inconclusive: 1.58 µM [inhibitor, partial curve, poor fit]

Two successive entries already listed, for reference:
Compound | Potency
O=C(NCC1CCCO1)c1cccc(Oc2ccc([N+](=O)[O-])cc2Cl)c1 (stereo not drawn) | inconclusive: 11.2 µM [inhibitor, partial curve]
Cc1cccc(NC(=S)N(CCN(C)C)C(C)c2cccnc2)c1 (stereo not drawn) | inconclusive: 3.55 µM [inhibitor, single point]

Shown field by field: 2 of the compounds above.
CC(C)(CO)CNC(=O)CC1C(=O)NCCN1CC(c1ccccc1)c1ccccc1 (stereo not drawn)
  Potency: inactive
O=C(NCCCCc1ccccc1)c1ccccc1Cl
  Potency: inactive
